These are yes or no findings as the source states them, for the method shown. Some results given as binding are weak or reduced against the parent protein; the word gives no strength. For some of these results: Sequences can lack the tags named with a protein.

Assay [1] addresses T1, Recombinant human NRP‐1 (human, UniProt O14786 22-856).
T1 construct: Neuropilin-1, human, recombinant soluble protein; see the vendor's datasheet (as far as I recall an extracellular fragment with a C-terminal His tag); also called Neuropilin‐1; soluble NRP‐1; source: bought: R&D Systems (3870‐N1)
T1 sequence (looked up): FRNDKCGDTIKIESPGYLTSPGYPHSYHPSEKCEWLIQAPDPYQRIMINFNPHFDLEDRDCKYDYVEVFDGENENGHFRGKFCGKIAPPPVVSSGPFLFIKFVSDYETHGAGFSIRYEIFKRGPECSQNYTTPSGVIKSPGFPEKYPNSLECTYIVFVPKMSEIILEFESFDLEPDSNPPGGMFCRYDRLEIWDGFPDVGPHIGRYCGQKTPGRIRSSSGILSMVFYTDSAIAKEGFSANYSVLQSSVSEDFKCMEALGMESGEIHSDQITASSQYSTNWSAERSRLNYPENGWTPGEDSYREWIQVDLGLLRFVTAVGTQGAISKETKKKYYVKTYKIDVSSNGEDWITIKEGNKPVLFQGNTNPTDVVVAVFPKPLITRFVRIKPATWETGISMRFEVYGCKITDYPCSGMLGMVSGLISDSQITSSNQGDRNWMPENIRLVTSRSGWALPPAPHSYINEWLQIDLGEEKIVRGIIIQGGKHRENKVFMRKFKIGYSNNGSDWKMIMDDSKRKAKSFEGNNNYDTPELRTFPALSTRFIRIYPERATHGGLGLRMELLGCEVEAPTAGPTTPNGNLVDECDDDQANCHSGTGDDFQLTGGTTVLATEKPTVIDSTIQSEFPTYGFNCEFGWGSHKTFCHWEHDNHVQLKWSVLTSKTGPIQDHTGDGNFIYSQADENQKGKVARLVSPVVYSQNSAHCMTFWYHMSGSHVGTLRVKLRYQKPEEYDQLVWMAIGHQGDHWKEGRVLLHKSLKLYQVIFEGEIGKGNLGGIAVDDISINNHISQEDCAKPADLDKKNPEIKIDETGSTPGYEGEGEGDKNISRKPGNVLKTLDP
As to the kind of experiment: solid-phase binding assay; plates coated overnight at 4 °C with 2 µg/mL protein in 25 mM Tris/HCl, 150 mM NaCl, 1 mM MgCl2; blocked with 1% BSA/PBS; biotinylated peptide 500 µg/mL, 1 h, room temperature; detected with streptavidin-alkaline phosphatase, A405; both purified.

The target of assay [2] is T2, Recombinant human NRP‐2/Fc (human) (UniProt O60462).
T2 sequence: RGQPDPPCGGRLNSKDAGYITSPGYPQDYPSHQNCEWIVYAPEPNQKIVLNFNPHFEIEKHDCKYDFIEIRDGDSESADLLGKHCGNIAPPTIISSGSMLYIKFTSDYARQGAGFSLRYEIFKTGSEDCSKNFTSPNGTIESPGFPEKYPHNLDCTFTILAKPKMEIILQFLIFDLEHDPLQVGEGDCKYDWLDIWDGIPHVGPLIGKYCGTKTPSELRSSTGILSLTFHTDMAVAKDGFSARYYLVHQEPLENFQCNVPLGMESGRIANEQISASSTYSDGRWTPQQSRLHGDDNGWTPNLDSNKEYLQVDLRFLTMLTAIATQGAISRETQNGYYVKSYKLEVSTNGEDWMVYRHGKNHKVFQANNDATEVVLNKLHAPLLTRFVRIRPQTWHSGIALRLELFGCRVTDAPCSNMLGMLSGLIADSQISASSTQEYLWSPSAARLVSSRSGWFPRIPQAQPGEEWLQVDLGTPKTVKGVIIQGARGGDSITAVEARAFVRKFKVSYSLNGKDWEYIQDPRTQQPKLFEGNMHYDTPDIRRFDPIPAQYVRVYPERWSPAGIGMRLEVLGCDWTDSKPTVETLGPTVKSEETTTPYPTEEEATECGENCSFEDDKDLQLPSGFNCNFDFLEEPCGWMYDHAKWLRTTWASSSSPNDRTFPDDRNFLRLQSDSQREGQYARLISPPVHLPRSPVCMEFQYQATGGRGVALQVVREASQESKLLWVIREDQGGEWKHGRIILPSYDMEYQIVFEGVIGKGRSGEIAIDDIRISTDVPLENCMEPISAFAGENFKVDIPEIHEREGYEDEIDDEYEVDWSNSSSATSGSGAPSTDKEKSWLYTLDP
Described as above.

The target of assay [3] is Recombinant human VEGFR‐1/Fc (human) (UniProt P17948). The assay is described as above.
In assay [4] the target is T1, Recombinant human NRP‐1. Description: SPR; competition: NRP-1 immobilised by amine coupling; protein analyte at a fixed concentration (VEGFR-1/Fc 5 nM; α5β1 integrin 200 nM; semaphorin 3A 200 nM) injected together with peptide at different concentrations; HEPES-buffered saline; both purified. On the technique in general: Surface plasmon resonance follows binding to a sensor surface in real time, without labels.

B1: biotinylated Flt_(2‐11) peptide (peptide)
peptide: NITVTLKKFPL
modifications: biotin
On to B1, for which the binding entry in assay [1] was “binds”; in assay [2], “binds”; in assay [3], “no binding (tested: 500 µg·mL^−1)”.

B2: Recombinant human VEGFR‐1/Fc (Fc fusion, UniProt P17948 27-758, looked up)
chain: SKLKDPELSLKGTQHIMQAGQTLHLQCRGEAAHKWSLPEMVSKESERLSITKSACGRNGKQFCSTLTLNTAQANHTGFYSCKYLAVPTSKKKETESAIYIFISDTGRPFVEMYSEIPEIIHMTEGRELVIPCRVTSPNITVTLKKFPLDTLIPDGKRIIWDSRKGFIISNATYKEIGLLTCEATVNGHLYKTNYLTHRQTNTIIDVQISTPRPVKLLRGHTLVLNCTATTPLNTRVQMTWSYPDEKNKRASVRRRIDQSNSHANIFYSVLTIDKMQNKDKGLYTCRVRSGPSFKSVNTSVHIYDKAFITVKHRKQQVLETVAGKRSYRLSMKVKAFPSPEVVWLKDGLPATEKSARYLTRGYSLIIKDVTEEDAGNYTILLSIKQSNVFKNLTATLIVNVKPQIYEKAVSSFPDPALYPLGSRQILTCTAYGIPQPTIKWFWHPCNHNHSEARCDFCSNNEESFILDADSNMGNRIESITQRMAIIEGKNKMASTLVVADSRISGIYICIASNKVGTVGRNISFYITDVPNGFHVNLEKMPTEGEDLKLSCTVNKFLYRDVTWILLRTVNNRTMHYSISKQKMAITKEHSITLNLTIMNVSLQDSGTYACRARNVYTGEEILQKKEITIRDQEAPYLLRNLSDHTVAISSSTTLDCHANGVPEPQITWFKNNHKIQQEPGIILGPGSSTLFIERVTEEDEGVYHCKATNQKGSVESSAYLTVQGTSDKSNLE
notes: VEGFR-1 (Flt-1), human, recombinant Fc chimera; also called sVEGFR‐1; sVEGFR‐1/Fc; source: bought: R&D Systems (321‐FL‐050)
Regarding B2, the binding entry in assay [4] is on record as “binds”.

The record behind these values is PMC9290910, “Neuropilin‐1 is required for endothelial cell adhesion to soluble vascular endothelial growth factor receptor 1” (The Febs Journal, 2021).
